Two molecules from paper PMC7413564, “Phase separation of Arabidopsis EMB1579 controls transcription, mRNA splicing, and development” (PLoS Biology, 2020) can be followed below.

For this assay, the target named is T1, recombinant EMB1579-6×His protein (Arabidopsis thaliana) (UniProt F4IS91).
T1 sequence: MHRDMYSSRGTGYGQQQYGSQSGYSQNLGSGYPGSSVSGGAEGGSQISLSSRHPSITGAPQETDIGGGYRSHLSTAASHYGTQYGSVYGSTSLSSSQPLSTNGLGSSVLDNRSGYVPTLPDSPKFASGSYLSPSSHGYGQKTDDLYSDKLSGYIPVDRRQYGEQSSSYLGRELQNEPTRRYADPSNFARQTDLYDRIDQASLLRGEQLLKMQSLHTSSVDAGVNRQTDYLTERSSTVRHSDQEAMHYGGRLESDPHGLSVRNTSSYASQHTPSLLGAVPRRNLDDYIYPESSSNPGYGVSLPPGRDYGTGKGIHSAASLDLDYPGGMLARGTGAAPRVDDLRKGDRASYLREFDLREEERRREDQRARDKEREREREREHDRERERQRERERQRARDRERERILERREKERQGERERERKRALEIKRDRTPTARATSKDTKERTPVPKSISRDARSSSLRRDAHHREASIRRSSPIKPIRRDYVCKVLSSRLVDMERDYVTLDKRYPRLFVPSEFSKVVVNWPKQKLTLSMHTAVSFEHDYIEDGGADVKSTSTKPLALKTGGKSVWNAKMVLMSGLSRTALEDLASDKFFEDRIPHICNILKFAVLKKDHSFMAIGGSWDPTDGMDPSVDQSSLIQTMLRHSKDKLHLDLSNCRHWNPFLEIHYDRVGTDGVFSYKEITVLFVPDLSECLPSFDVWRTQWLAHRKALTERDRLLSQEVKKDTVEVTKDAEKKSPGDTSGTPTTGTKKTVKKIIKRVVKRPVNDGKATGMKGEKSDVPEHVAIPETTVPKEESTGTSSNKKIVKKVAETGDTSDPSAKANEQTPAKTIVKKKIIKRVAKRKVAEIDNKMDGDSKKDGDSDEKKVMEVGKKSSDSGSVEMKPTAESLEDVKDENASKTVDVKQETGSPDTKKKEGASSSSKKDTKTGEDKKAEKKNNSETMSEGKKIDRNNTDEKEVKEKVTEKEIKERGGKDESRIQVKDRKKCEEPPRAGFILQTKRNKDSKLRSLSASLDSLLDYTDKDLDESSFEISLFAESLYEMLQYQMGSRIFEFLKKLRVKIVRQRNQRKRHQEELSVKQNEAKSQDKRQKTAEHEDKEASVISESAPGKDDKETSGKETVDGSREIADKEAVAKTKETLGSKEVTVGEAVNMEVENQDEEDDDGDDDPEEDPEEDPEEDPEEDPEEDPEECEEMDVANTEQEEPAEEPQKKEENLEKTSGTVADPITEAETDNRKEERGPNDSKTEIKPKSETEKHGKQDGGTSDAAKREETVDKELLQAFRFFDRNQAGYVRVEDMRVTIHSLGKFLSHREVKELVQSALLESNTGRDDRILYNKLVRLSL
Briefly: affinity purification with mass spectrometry; EMB1579-6×His bound to Ni-NTA beads, incubated 2 hours on ice with total extract of WT Arabidopsis roots dialysed into P buffer (25 mM Tris-HCl pH 8.0, 50 mM KCl, 2 mM DTT); bands cut from a silver-stained gel; Ni-NTA beads as control; only the target purified.

These are yes or no findings as the source states them, for the method shown. Binding seen in cells or lysates may run through a third protein. Here binding means that the protein was enriched with, or labelled near, the bait; the list need not be complete. Where a sequence is shown, tags or fusion partners need not be part of it.

B1: MULTIPLE SUPPRESSOR OF IRA 4 (MSI4) (protein, UniProt O22607 1-507)
chain: MESDEAAAVSPQATTPSGGTGASGPKKRGRKPKTKEDSQTPSSQQQSDVKMKESGKKTQQSPSVDEKYSQWKGLVPILYDWLANHNLVWPSLSCRWGPQLEQATYKNRQRLYLSEQTDGSVPNTLVIANCEVVKPRVAAAEHISQFNEEARSPFVKKYKTIIHPGEVNRIRELPQNSKIVATHTDSPDVLIWDVETQPNRHAVLGAANSRPDLILTGHQDNAEFALAMCPTEPFVLSGGKDKSVVLWSIQDHITTIGTDSKSSGSIIKQTGEGTDKNESPTVGPRGVYHGHEDTVEDVAFSPTSAQEFCSVGDDSCLILWDARTGTNPVTKVEKAHDADLHCVDWNPHDDNLILTGSADNTVRLFDRRKLTANGVGSPIYKFEGHKAAVLCVQWSPDKSSVFGSSAEDGLLNIWDYDRVSKKSDRAAKSPAGLFFQHAGHRDKVVDFHWNASDPWTIVSVSDDCETTGGGGTLQIWRMSDLIYRPEEEVVAELEKFKSHVMTCASKP
As to B1, the binding entry is recorded as “binds”.

B2: DDB1A (protein, UniProt Q9M0V3 1-1088)
chain: MSSWNYVVTAHKPTSVTHSCVGNFTSPQELNLIVAKCTRIEIHLLTPQGLQPMLDVPIYGRIATLELFRPHGEAQDFLFIATERYKFCVLQWDPESSELITRAMGDVSDRIGRPTDNGQIGIIDPDCRLIGLHLYDGLFKVIPFDNKGQLKEAFNIRLEELQVLDIKFLFGCAKPTIAVLYQDNKDARHVKTYEVSLKDKDFVEGPWSQNSLDNGADLLIPVPPPLCGVLIIGEETIVYCSASAFKAIPIRPSITKAYGRVDVDGSRYLLGDHAGMIHLLVITHEKEKVTGLKIELLGETSIASTISYLDNAVVFVGSSYGDSQLVKLNLHPDAKGSYVEVLERYINLGPIVDFCVVDLERQGQGQVVTCSGAFKDGSLRVVRNGIGINEQASVELQGIKGMWSLKSSIDEAFDTFLVVSFISETRILAMNLEDELEETEIEGFLSQVQTLFCHDAVYNQLVQVTSNSVRLVSSTTRELRDEWHAPAGFTVNVATANASQVLLATGGGHLVYLEIGDGKLTEVQHALLEYEVSCLDINPIGDNPNYSQLAAVGMWTDISVRIFSLPELTLITKEQLGGEIIPRSVLLCAFEGISYLLCALGDGHLLNFQMDTTTGQLKDRKKVSLGTQPITLRTFSSKSATHVFAASDRPTVIYSSNKKLLYSNVNLKEVSHMCPFNSAAFPDSLAIAREGELTIGTIDDIQKLHIRTIPLGEHARRICHQEQTRTFGICSLGNQSNSEESEMHFVRLLDDQTFEFMSTYPLDSFEYGCSILSCSFTEDKNVYYCVGTAYVLPEENEPTKGRILVFIVEDGRLQLIAEKETKGAVYSLNAFNGKLLAAINQKIQLYKWMLRDDGTRELQSECGHHGHILALYVQTRGDFIVVGDLMKSISLLLYKHEEGAIEERARDYNANWMSAVEILDDDIYLGAENNFNLLTVKKNSEGATDEERGRLEVVGEYHLGEFVNRFRHGSLVMRLPDSEIGQIPTVIFGTVNGVIGVIASLPQEQYTFLEKLQSSLRKVIKGVGGLSHEQWRSFNNEKRTAEARNFLDGDLIESFLDLSRNKMEDISKSMNVQVEELCKRVEELTRLH
B2: the binding entry is listed as “binds”.
